Source: PubChem BioAssay AID686943 (Drosophila RNAi Screening Center, 2013)
The screen tested about 23,000 reagents; this is an unselected part of those that have a named target and a result. 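Extra replicates exist only for a retested subset of genes; insulin dose and duration not given; both raised and lowered dpERK matter.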 Not all columns of the deposit are shown. No sequences are given here. Not stated in the record: the amount of reagent, the time to read-out.

Aim: 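Knockdowns that increase or decrease active ERK after insulin receptor stimulation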 (primary screen)
Cell system: Drosophila S2R+ haemocyte-like cells expressing YFP-tagged ERK (Rolled)
Reagents: long dsRNA against Drosophila genes
Conditions: insulin stimulation versus unstimulated cells; dose and duration not given
Detection: 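Per-plate z-scores of phospho-ERK immunostaining normalised to YFP-tagged ERK, measured with and without insulin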
Scale: replicate 1, z-score of dpERK with insulin: higher = more active ERK per ERK-YFP after insulin

What is on record for Nbr [DRSC03166]?
replicate 1, z-score of dpERK with insulin: -0.23

Which result is listed for CG18135 [DRSC10295]?
replicate 1, z-score of dpERK with insulin: 0.41

What did the screen give for sPLA2 [DRSC06041]?
replicate 1, z-score of dpERK with insulin: 1.2

For Df31 [DRSC03738], what was measured?
replicate 1, z-score of dpERK with insulin: 0.69

With Df31 [DRSC22163], what was measured?
replicate 1, z-score of dpERK with insulin: 0.71

In a second layout: results already given.
{"Gene":"CG18135","DRSC id":"DRSC10295","replicate 1, z-score of dpERK with insulin":0.41}
{"Gene":"sPLA2","DRSC id":"DRSC06041","replicate 1, z-score of dpERK with insulin":1.2}

Further results:
With CG5770 [DRSC06954], what was measured?
replicate 1, z-score of dpERK with insulin: -0.93

For KLHL18 [DRSC15496], what does the deposit list?
replicate 1, z-score of dpERK with insulin: -0.27

What did the screen give for blanks [DRSC09757]?
replicate 1, z-score of dpERK with insulin: -1.41

What is on record for CG4291 [DRSC00650]?
replicate 1, z-score of dpERK with insulin: -0.8

What is on record for CG9018 [DRSC08618]?
replicate 1, z-score of dpERK with insulin: -0.84

What did the screen give for Cpr49Aa [DRSC07197]?
replicate 1, z-score of dpERK with insulin: 0.7

With CG14297 [DRSC14776], how do the results read?
replicate 1, z-score of dpERK with insulin: 0.43
